In PubChem BioAssay AID540256 (National Center for Advancing Translational Sciences (NCATS), 2011):
Among all 300,000 compounds or so, about 3,700 (1.2%) were called active. This list was built around the results that the source calls inconclusive (neither active nor inactive); the mix of calls is not that of the screen. Calls come from the whole dose curve; tested in HEK293 cells. Potencies of inconclusive entries are doubtful fits and often do not repeat.
% is set by controls: 0 for no effect and ±100 for the full control effect; potency is the fitted concentration of half-maximal effect.

Assay: qHTS for Inhibitors of binding or entry into cells for Lassa Virus; note: nearly all actives have a fitted effect of over 50% in size
Details: Lassa virus pseudotype entry inhibition, cell reporter; activity change, negative = inhibition: at 37.9 µM (top of the series) unless noted
With `CCOc1ccc(NC(=O)C2CCC(CNc3c(N4CCC(C)CC4)c(=O)c3=O)CC2)cc1` (centres undefined) the “activity change, negative = inhibition” value was inactive: -0.749%. For `COc1ccc(C)cc1NC(=O)C1CCC(CNS(=O)(=O)c2ccc3c(c2)CCCC(=O)N3)CC1` (centres undefined), the “activity change, negative = inhibition” value was inactive: 0.05% [at 46.1 µM]. For `Cc1ccc(C)c(N2CCN(C(=O)c3ccc4nsnc4c3)CC2)c1`, the Potency was inconclusive: 3.55 µM [inhibitor, partial curve, poor fit]. With `COc1ccc(CC(C)N2CCN(c3cccc(C(F)(F)F)c3)CC2)cc1OC` (centres undefined) the Potency was inconclusive: 16.4 µM [inhibitor, partial curve]. With `CCOC(=S)NC(=O)c1sc2ccccc2c1Cl` the “activity change, negative = inhibition” value was inactive: 5.62%. For `COc1ccccc1NC(=O)c1sc2nc(-c3ccco3)ccc2c1N`, the “activity change, negative = inhibition” value was inactive: 2.29%. With `O=C(CN1CCN(c2ccccn2)CC1)Nc1ccc(F)c(F)c1` the Potency was inconclusive: 25.1 µM [inhibitor, partial curve, poor fit]. For `CC(C)c1c(C(=O)N/N=C/c2cccc(OCc3ccccc3)c2)nnn1-c1nonc1N`, the Potency was inconclusive: 35.5 µM [inhibitor, single point]. For `Cc1cccc(-c2nnc(SCC(=O)C(C)(C)C)n2C)c1`, the Potency was inconclusive: 3.55 µM [activator, partial curve]. For `O=C(OCC(=O)N1CCOCC1)c1ccc(F)cc1Cl`, the “activity change, negative = inhibition” value was inactive: 3.99% [at 46.1 µM]. In the case of `COc1cccc(OC)c1OCCCN1CCC(Cc2ccccc2)CC1`, the Potency is reported as inconclusive: 7.94 µM [inhibitor, partial curve, poor fit]. For `O=C(c1ccc(N2CCCCCC2)c([N+](=O)[O-])c1)N1CCC2(CC1)OCCO2`, the Potency was inconclusive: 10 µM [inhibitor, partial curve, poor fit]. For `CN1CCN(c2ccc(C(N)=O)cc2N)CC1`, the Potency was inconclusive: 20 µM [activator, single point]. With `CCOC(=O)c1c(C)[nH]c(C(=O)COC(=O)C23CC4CC(CC(Cl)(C4)C2)C3)c1C` the Potency was inconclusive: 3.66 µM [inhibitor, single point]. In the case of `Cc1cc(C)nc(SC2=CS(=O)(=O)c3ccccc32)n1`, the Potency is reported as inconclusive: 20.6 µM [inhibitor, partial curve, poor fit]. For `CCCCn1c(SCC(=O)Nc2cccc(OC)c2)nc2ccc(N3CCOCC3)cc2c1=O`, the “activity change, negative = inhibition” value was inactive: 6.55%. With `COc1ccc(-c2nnc(Sc3nc4ccccc4o3)c3ccccc23)cc1` the “activity change, negative = inhibition” value was inactive: -6.31%. For `O=C1C=C(c2ccc(Cl)cc2)C(=O)N1Nc1ccccc1`, the Potency was inconclusive: 35.5 µM [inhibitor, single point]. For `O=S(=O)(Oc1ccc(C(=S)N2CCOCC2)cc1)c1ccc(Cl)cc1`, the Potency was inconclusive: 35.5 µM [inhibitor, single point]. For `COc1cc2c(CCNC(C)=O)c[nH]c2cc1Cl`, the “activity change, negative = inhibition” value was inactive: 0.0848%. For `COCCN1C(=O)N[C@@H](CCc2ccccc2)[C@H](C(=O)OC)[C@H]1C`, the Potency was inconclusive: 0.473 µM [activator, partial curve, poor fit]. With `Cc1cccc(OC(=O)Cn2c(C(F)(F)F)nc3ccccc32)c1` the “activity change, negative = inhibition” value was inactive: 8.55%. In the case of `O=C(CCn1cnc2ccccc21)N/N=C/c1ccccc1O`, the Potency is reported as inconclusive: 29.1 µM [inhibitor, single point]. In the case of `CCCOc1ccc(-c2nonc2NC(=O)c2ccco2)cc1OCCC`, the “activity change, negative = inhibition” value is reported as inactive: -4.24% [at 46.1 µM]. In the case of `Nc1cc(N)nc(SCC(=O)N2CCc3ccccc32)n1`, the “activity change, negative = inhibition” value is reported as inactive: 9.32%. With `CSCCC(NS(=O)(=O)c1cccc(C(F)(F)F)c1)C(=O)N(C)CCOc1ccc(Cl)cc1` (centres undefined) the Potency was inconclusive: 7.94 µM [inhibitor, partial curve, poor fit]. With `Cc1ccc(Oc2ccc(/C=N/O)cn2)cc1` the “activity change, negative = inhibition” value was inactive: 22.8%. With `CCOc1ccccc1C1CC(=O)Nc2cc3c(cc21)OCCO3` (centres undefined) the Potency was inconclusive: 25.9 µM [inhibitor, single point]. With `O=C1NC(=O)C2(CCC(C3CCCCC3)CC2)N1` (centres undefined) the Potency was inconclusive: 8.91 µM [inhibitor, partial curve, poor fit]. For `Cc1cc(/C=C2/C(=N)N3C(=NC2=O)SN=C3S(C)(=O)=O)c(C)n1-c1ccccc1F`, the Potency was inconclusive: 35.5 µM [inhibitor, single point]. With `Cc1cc(C)cc(N=C2SC(CC(=O)Nc3ccccc3)C(=O)N2CCN2CCOCC2)c1` (centres undefined) the Potency was inconclusive: 25.1 µM [inhibitor, partial curve, poor fit]. For `Cc1csc(NC(=O)CSc2nc3ccccc3s2)n1`, the Potency was inconclusive: 0.73 µM [activator, partial curve, poor fit]. In the case of `Cc1cc(NC(=O)CSc2nc(C(C)C)nc3ccccc23)no1`, the Potency is reported as inconclusive: 7.3 µM [inhibitor, single point]. In the case of `Cc1ccc(/C=N/NC(=O)Nc2ccccc2)o1`, the Potency is reported as inconclusive: 3.16 µM [activator, partial curve, poor fit]. For `Nc1nc(SCC(=O)Nc2ccc(F)cc2)[nH]c(=O)c1NC(=O)c1ccc(F)c(F)c1`, the Potency was inconclusive: 31.6 µM [activator, single point]. With `COc1cc(/C=N/NC(=O)Cc2c[nH]c3ccccc23)cc(OC)c1OC` the Potency was inconclusive: 4.61 µM [inhibitor, full curve]. In the case of `COc1ccc(OCc2cccc(C(=O)O)c2)cc1`, the Potency is reported as inconclusive: 0.199 µM [inhibitor, full curve, poor fit]. With `Cc1ccc(NC(=O)c2ccc3ccccc3n2)nc1` the Potency was inconclusive: 11.6 µM [inhibitor, partial curve, poor fit]. In the case of `C=CCn1c(SCC(=O)Nc2ccccc2OC)nnc1-c1ccccn1`, the Potency is reported as inconclusive: 14.6 µM [inhibitor, partial curve]. For `Cc1cc(C)n(CCc2nc3c4ccccc4nc(SCc4ccc(F)cc4)n3n2)n1`, the “activity change, negative = inhibition” value was inactive: -5.06% [at 46.1 µM]. In the case of `CCOC(=O)c1cnc(SC)nc1Oc1cccc(NS(=O)(=O)c2ccccc2)c1`, the “activity change, negative = inhibition” value is reported as inactive: 14.8%. In the case of `Cc1ccc(N2CC(C(=O)OCC(=O)c3ccc(F)cc3)CC2=O)cc1` (centres undefined), the “activity change, negative = inhibition” value is reported as inactive: -6.9% [at 46.1 µM]. In the case of `Cc1c(NC(=S)NC(=O)CC(C)C)c(=O)n(-c2ccccc2)n1C`, the Potency is reported as inconclusive: 3.26 µM [inhibitor, partial curve, poor fit]. With `CCOC(=O)c1cnc(SCc2ccc(C)cc2)nc1N` the Potency was inconclusive: 3.16 µM [inhibitor, partial curve, poor fit].
